Laboratory results reported in US20120195897A1.
No constants are given. Whether binding was seen depends on the method and setting. Some results given as binding are weak or reduced against the parent protein; the word gives no strength. Blank lines part the entries; values can stand above or below the binder they belong to.

By UniProt entry, the sequences of proteins in these tests, tags left out. Residues count along the entry.
UniProt P08069, residues 31-932: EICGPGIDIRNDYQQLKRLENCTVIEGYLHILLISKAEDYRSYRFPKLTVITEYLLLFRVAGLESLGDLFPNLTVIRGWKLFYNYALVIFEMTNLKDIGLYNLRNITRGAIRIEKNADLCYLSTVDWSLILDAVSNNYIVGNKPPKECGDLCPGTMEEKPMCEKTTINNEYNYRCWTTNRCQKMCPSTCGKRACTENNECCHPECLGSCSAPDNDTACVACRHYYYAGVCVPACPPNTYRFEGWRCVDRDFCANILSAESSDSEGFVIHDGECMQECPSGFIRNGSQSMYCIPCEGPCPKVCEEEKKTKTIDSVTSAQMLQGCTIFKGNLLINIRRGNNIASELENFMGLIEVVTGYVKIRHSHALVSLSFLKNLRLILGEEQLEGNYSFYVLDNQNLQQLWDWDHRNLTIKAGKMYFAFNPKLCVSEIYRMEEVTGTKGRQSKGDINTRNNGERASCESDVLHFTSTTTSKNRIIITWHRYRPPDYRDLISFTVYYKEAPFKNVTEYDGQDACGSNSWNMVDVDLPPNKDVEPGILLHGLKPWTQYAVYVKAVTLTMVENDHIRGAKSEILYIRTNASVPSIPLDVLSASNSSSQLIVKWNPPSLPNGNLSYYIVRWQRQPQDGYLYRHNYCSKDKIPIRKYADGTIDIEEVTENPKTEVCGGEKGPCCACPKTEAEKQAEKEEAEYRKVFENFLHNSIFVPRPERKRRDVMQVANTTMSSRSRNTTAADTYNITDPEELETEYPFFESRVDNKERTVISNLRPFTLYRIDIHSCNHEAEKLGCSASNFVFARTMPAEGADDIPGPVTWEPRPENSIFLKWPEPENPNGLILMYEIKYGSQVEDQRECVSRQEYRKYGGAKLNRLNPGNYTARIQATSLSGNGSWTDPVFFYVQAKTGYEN
UniProt P05019, residues 49-118: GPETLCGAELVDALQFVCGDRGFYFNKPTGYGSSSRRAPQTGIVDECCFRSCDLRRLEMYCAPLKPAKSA

Legend:
[1] = biological target: human insulin-like growth factor 1 receptor (IGF-1R) (human) (UniProt P08069); assay: ELISA
[2] = biological target: human insulin-like growth factor 1 receptor (IGF-1R) (human) (UniProt P08069); assay: ELISA (Example 2)
[3] = biological target: insulin-like growth factor 1 (IGF-1) (UniProt P05019); assay: ELISA

B1: m536 (VHH)
VHH: QVQLVQSGGGLVQPGGSLRLSCAASYYGQSFDSDSVVFMSWVRQAPGKGLEWISSMSNTGTYIDYADSVKGRFTISRDNSKNTLYLQMNTLRAEDTATYYCVKEWDRGLRRLQHWGQGTVVTVSS
binding [1]: binds
binding [2]: binds

B2: m535 (VHH)
VHH: QVQLVQSGGGLVQPGGSLRLSCAASSFSFSDYEMSWVRQAPGKGLEWVAHINSDGVIQYADSVKGRFTISRDNSKNTLYLQMNTLRAEDTATYYCVRVAVPGKRYFQYWGQGTTVTVSS
binding [1]: binds
binding [2]: binds

B3: m636 (VHH)
VHH: QVQLVQSGGGLVQPGGSLRLSCAASYYSLQHDNFPYTFMSWVRQAPGQRLEWVSGISGSGGSTYYADSVKGRFTISRDNSKNTLYLQMNTLRAEDTAMYYCARIRWLQDLDYWGQGTLVTVSS
binding [3]: binds

Other lines, results leading:

binding [1]: binds
B4: m546 (VHH)
VHH: QVQLVQSGGGLVQPGGSLRLSCAASYYSQQYNSYPITFMSWVRQAPGQRLEWVASINQDGSQIDYAGSVKGRFTISRDNSKNTLYLQMNTLRAEDTATYYCAVDLRSGARNFQHWGQGTLVTVSS

binding [1]: binds
binding [2]: binds
B5: m537 (VHH)
VHH: QVQLVQSGGGLVQPGGSLRLSCAASNYSQQTYSAPITFMSWVRQAPGQGLEWVSSTSWNGGTTDYADSVKGRFTISRDNSKNTLYLQMNTLRAEDTAMYYCVTDTSGWRYFQDWGQGTLVTVSS
